Values of other authors as cited in patent EP1903028A1, “Conjugates of glutamate and NMDA receptor channel blockers without excito-toxic effects” (Tschollar,, Werner, priority 2006, dated 2008).
At least one compound was matched to its structure with a doubt left.

Target: NMDA receptor
Conditions: affinity for the NMDA receptor, background section; cited from earlier work

## N[C@@H](CCC(=O)O)C(=O)O [glutamate]
  EC50: ~10 µM
